From paper PMC7140707

Chains of the proteins cited; added tags and fusions are not shown. Residues count along the entry.
UniProt P32569: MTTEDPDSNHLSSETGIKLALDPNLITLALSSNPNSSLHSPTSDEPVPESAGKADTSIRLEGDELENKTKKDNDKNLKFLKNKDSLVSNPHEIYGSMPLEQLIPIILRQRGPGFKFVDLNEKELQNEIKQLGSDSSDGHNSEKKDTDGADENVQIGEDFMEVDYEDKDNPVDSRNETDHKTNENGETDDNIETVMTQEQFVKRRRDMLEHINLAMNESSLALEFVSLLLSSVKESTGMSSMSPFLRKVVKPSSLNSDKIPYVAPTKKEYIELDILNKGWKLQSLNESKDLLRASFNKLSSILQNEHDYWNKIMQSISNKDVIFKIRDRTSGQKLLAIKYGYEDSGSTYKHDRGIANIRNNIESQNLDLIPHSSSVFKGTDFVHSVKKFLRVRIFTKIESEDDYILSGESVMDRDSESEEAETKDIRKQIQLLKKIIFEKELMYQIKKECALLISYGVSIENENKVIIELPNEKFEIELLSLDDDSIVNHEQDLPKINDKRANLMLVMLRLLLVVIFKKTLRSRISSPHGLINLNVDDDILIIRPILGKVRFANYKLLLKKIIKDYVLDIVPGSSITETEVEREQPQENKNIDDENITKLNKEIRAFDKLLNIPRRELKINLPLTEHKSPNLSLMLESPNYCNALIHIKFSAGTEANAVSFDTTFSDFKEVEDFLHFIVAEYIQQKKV
UniProt P53297: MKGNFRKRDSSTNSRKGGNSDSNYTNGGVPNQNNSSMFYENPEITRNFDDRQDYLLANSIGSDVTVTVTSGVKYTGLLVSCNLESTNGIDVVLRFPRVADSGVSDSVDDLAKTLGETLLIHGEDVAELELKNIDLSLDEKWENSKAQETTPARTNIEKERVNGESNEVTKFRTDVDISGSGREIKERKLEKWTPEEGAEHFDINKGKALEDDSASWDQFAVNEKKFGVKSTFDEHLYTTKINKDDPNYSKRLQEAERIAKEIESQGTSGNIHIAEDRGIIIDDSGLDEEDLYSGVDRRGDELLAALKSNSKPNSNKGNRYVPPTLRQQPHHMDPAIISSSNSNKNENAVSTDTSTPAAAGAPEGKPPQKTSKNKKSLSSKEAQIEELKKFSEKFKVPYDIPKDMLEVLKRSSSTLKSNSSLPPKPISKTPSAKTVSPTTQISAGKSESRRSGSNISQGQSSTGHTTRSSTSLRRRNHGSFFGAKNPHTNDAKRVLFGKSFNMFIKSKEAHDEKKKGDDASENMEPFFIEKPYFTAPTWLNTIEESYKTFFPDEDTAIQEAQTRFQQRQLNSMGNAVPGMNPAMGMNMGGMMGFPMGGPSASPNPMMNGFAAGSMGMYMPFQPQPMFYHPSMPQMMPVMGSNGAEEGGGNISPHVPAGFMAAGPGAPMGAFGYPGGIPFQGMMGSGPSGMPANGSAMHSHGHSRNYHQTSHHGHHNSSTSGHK
UniProt P17555: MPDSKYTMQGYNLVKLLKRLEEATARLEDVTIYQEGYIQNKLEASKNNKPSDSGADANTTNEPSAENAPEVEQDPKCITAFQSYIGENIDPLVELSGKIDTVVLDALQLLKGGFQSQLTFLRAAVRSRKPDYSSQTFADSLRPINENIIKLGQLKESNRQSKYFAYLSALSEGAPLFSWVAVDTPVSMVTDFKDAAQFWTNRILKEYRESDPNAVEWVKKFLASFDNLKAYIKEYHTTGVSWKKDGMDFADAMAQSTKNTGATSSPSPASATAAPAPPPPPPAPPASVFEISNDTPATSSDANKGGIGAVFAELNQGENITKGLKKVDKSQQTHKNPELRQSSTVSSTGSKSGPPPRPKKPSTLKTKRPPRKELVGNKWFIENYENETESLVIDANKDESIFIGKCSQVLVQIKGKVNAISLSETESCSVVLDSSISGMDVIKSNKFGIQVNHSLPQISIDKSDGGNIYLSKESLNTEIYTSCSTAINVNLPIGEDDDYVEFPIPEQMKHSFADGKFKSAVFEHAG
UniProt P09733: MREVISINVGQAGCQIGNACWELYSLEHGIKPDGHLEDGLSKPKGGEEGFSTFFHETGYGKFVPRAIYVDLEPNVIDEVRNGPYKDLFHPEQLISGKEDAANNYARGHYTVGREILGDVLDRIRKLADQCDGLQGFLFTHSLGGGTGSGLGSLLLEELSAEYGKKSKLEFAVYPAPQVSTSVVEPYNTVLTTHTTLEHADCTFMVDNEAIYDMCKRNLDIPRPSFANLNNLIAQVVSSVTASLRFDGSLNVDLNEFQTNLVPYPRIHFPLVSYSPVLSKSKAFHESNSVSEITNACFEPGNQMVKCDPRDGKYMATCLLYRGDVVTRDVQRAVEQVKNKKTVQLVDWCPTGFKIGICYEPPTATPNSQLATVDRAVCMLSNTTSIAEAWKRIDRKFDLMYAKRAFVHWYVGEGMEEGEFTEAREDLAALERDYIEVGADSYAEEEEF
UniProt Q12329: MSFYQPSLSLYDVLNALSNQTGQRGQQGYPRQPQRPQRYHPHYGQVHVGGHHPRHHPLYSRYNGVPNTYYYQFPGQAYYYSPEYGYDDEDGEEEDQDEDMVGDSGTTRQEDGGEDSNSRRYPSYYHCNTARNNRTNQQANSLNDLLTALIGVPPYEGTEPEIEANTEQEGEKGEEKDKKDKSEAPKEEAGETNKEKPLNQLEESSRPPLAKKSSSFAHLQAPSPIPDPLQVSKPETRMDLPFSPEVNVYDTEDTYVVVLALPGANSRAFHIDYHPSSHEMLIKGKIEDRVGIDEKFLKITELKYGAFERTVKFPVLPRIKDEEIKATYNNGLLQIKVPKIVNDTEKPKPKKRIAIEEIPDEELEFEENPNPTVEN
UniProt P08678: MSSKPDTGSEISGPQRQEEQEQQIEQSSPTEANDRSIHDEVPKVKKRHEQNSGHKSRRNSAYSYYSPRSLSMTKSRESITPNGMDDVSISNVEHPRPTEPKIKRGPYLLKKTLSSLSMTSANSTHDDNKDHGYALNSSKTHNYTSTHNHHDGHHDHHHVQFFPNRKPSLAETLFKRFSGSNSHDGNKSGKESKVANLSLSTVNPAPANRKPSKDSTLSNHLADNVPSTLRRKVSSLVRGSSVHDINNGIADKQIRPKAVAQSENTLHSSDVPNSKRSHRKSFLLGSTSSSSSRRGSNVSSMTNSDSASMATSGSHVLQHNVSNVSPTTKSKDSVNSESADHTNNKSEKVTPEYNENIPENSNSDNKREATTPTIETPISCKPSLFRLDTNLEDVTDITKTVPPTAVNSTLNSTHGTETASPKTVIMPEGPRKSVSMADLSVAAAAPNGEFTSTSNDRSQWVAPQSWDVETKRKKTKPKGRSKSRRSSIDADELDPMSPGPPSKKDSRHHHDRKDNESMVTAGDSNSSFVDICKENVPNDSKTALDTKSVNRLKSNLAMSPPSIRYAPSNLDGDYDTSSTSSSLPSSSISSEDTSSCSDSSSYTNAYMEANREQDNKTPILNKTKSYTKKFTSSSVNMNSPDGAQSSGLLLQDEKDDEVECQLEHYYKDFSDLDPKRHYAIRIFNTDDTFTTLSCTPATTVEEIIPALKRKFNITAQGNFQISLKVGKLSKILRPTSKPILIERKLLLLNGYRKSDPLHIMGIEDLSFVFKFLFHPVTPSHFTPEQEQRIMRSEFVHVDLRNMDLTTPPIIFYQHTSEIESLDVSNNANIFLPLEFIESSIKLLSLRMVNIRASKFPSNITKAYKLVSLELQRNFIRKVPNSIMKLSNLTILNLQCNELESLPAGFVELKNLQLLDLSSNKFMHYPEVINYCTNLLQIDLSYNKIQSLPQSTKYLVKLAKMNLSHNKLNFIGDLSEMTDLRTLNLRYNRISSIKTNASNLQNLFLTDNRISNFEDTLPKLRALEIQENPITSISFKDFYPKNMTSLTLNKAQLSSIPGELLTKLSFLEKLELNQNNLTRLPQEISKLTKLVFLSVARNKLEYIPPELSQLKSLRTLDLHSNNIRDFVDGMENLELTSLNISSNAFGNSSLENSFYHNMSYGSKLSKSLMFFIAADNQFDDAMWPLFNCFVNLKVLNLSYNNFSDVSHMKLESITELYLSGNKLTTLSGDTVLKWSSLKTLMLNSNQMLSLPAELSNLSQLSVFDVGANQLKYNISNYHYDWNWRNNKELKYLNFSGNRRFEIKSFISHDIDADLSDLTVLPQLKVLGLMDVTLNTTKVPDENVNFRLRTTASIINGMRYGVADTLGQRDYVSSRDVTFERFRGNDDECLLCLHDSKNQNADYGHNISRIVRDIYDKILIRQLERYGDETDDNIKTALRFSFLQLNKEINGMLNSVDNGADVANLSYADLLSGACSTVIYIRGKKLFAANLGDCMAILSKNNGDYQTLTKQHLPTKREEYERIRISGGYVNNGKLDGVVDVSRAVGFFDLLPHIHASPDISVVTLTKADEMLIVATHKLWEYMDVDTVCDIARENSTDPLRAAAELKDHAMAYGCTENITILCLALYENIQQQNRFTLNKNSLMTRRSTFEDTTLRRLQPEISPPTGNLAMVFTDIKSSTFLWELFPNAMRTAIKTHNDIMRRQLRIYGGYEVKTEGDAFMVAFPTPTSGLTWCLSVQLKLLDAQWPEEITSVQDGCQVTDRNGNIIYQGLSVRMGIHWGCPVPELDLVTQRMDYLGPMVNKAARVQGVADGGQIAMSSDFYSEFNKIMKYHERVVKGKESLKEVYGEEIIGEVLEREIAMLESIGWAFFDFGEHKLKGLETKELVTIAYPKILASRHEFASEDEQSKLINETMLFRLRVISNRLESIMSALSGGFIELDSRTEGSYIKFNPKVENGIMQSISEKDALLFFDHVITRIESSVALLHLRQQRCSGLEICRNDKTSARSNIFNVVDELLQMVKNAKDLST
UniProt P10614: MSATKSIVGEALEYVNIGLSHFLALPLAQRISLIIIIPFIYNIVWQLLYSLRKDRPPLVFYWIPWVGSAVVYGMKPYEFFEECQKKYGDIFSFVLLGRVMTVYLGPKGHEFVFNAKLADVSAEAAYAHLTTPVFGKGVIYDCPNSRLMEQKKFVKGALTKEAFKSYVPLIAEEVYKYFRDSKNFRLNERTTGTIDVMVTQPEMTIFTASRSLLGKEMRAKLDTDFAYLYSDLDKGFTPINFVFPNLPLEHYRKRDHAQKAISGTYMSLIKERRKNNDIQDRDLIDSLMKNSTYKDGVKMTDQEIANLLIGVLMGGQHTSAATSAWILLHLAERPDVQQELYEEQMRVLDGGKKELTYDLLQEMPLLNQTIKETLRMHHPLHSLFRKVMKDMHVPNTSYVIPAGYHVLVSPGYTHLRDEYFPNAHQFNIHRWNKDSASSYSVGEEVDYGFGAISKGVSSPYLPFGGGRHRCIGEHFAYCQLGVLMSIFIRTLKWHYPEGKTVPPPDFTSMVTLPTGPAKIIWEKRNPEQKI
UniProt P00817: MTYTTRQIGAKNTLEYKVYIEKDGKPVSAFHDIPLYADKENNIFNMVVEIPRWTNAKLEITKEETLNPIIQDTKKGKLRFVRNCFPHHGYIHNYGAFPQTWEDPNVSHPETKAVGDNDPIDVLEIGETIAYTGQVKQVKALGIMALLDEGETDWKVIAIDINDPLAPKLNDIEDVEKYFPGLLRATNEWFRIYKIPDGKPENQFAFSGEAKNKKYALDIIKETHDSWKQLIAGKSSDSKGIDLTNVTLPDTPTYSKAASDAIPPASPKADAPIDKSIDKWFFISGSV
UniProt P32867: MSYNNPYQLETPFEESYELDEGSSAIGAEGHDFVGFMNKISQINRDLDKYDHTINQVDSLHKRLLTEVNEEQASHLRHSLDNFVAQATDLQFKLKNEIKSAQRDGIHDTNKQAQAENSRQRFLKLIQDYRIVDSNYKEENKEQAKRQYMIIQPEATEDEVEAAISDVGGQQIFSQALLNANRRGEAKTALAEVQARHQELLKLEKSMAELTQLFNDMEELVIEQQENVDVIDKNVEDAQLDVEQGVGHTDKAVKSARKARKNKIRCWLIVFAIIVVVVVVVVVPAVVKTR
UniProt P00360: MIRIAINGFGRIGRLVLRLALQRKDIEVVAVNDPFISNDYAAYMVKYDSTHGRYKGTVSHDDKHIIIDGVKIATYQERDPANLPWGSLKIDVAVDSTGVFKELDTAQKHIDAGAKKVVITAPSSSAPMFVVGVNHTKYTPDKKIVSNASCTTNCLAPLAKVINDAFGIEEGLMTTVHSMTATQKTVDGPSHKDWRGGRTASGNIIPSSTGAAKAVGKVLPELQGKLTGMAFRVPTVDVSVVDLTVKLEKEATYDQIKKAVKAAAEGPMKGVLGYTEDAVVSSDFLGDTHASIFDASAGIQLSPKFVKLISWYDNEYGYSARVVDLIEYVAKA
UniProt P40495, residues 23-371: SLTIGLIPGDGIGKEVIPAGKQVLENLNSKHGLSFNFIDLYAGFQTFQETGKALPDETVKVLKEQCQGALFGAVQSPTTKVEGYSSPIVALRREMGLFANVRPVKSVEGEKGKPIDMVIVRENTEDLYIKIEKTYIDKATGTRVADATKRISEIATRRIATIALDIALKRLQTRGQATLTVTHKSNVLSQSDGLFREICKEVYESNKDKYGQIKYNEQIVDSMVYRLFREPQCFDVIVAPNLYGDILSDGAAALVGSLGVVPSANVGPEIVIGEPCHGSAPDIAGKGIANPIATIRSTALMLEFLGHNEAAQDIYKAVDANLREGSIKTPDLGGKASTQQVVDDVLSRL

Target: T1, His6-Gis1 (yeast (S. cerevisiae)) (UniProt Q03833)
T1 sequence: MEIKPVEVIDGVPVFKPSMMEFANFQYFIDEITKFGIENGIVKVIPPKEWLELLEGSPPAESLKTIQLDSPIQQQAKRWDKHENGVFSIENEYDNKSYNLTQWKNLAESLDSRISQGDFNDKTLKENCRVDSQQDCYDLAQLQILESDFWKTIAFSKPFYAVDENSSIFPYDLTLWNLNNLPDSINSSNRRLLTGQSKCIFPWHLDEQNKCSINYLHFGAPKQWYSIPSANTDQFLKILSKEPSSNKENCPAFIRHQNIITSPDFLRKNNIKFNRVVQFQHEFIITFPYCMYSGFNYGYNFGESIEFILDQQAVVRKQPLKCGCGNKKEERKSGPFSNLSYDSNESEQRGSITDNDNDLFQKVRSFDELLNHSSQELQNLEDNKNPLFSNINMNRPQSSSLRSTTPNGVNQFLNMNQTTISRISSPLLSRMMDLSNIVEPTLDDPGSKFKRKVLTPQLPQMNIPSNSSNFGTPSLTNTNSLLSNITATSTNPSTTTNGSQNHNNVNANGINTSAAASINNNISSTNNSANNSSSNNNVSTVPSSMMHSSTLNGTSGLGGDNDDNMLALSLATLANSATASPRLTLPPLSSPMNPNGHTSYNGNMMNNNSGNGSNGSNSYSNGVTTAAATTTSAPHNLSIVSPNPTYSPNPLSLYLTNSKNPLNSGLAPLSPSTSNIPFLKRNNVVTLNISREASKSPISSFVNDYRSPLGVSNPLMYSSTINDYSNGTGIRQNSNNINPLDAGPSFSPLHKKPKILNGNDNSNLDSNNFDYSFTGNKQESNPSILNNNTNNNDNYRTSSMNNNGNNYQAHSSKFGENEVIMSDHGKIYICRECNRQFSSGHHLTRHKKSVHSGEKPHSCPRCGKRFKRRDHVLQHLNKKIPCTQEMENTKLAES
Assay: affinity purification with mass spectrometry; His6-Gis1 pre-bound to a Ni Sepharose 6 Fast Flow column; crude yeast extract (Δgis1 cells grown in air or under hypoxia, Δgis1Δhem1 cells at intermediate or high ALA) loaded, 4 °C, 2 h; eluted complexes separated by SDS-PAGE, bands excised, MS; only the target purified

Row | binding | Substance
1 | binds | SRB4 (from UniProt P32569 1-687)
2 | binds | PBP1 (from UniProt P53297 1-722)
3 | binds | HRK1 (from UniProt Q08732 1-759)
4 | binds | SRV2 (from UniProt P17555 1-526)
5 | binds | MIG3 (from UniProt P39943 1-394)
6 | binds | OYE2 (from UniProt Q03558 1-400)
7 | binds | TUB1 (from UniProt P09733 1-447)
8 | binds | HSP42 (from UniProt Q12329 1-375)
9 | binds | RVB2 (from UniProt Q12464 1-471)
10 | binds | ZDS1 (from UniProt P50111 1-915)
11 | binds | CPR1 (from UniProt P14832 1-162)
12 | binds | ACT1 (from UniProt P60010 1-375)
13 | binds | YBR238C

More lines, now with the values behind:

Row | Substance | binding
14 | CYR1 (from UniProt P08678 1-2026) | binds
15 | ERG11 (from UniProt P10614 1-530) | binds
16 | MIG1 (from UniProt P27705 1-504) | binds
17 | ILV1 | binds
18 | CDC33 (from UniProt P07260 1-213) | binds
19 | IPP1 (from UniProt P00817 1-287) | binds
20 | NOG2 (from UniProt P53742 1-486) | binds
21 | HTB2 (from UniProt P02294 1-131) | binds
22 | TUB2 (from UniProt P02557 1-457) | binds
23 | SSO1 (from UniProt P32867 1-290) | binds
24 | YCK2 (from UniProt P23292 1-546) | binds
25 | TDH1 (from UniProt P00360 1-332) | binds
26 | BEM2 (from UniProt P39960 1-2167) | binds
27 | PGI1 (from UniProt P12709 1-554) | binds
28 | RVS167 (from UniProt P39743 1-482) | binds
29 | ATP1 (from UniProt P07251 36-545) | binds
30 | LYS21 | binds
31 | ARC40 (from UniProt P38328 1-384) | binds
32 | LYS12 (from UniProt P40495 23-371) | binds
33 | NUP60 (from UniProt P39705 1-539) | binds
34 | YDR365-WB | binds

These are yes or no findings as the source states them, for the method shown. In cells and extracts the contact can be indirect. Here binding means that the protein was enriched with, or labelled near, the bait; the list need not be complete. Where a sequence is shown, tags or fusion partners need not be part of it.
